According to paper PMC8403986:
No constants are given. Whether binding was seen depends on the method and setting. For some assays here: In cells and extracts the contact can be indirect. Some results given as binding are weak or reduced against the parent protein; the word gives no strength.

The chains behind the UniProt entries cited, without tags or fusion partners. Where a name states a change or a piece, a line headed by the entry shows the natural chain unless it says otherwise. A line that says so, or that is headed by a name, gives the form on record, which may keep a tag or linker.
AXIN1-dStrepII (axis inhibition protein 1, wild type, C-terminal double-StrepII tag) (O15169-2, form named): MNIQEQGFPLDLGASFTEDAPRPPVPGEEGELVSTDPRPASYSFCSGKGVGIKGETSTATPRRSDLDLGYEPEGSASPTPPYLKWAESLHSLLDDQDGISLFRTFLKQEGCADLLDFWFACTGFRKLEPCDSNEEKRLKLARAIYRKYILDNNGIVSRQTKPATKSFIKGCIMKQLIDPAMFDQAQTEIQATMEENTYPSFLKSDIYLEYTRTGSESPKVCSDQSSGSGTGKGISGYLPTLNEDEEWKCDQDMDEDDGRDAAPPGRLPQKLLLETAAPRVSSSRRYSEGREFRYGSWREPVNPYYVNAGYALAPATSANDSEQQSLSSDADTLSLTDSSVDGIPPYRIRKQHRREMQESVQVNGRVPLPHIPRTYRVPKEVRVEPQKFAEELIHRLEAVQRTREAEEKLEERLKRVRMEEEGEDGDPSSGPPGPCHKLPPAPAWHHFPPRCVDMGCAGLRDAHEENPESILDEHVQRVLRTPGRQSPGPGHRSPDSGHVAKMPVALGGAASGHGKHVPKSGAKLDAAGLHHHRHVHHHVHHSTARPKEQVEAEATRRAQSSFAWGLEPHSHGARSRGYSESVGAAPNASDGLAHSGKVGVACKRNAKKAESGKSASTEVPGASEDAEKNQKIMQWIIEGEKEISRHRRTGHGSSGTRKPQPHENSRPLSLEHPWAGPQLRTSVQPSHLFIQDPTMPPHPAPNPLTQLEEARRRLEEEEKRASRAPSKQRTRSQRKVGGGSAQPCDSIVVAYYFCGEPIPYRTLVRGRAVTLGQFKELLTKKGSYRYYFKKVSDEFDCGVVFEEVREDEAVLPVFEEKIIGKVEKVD
UniProt P35222: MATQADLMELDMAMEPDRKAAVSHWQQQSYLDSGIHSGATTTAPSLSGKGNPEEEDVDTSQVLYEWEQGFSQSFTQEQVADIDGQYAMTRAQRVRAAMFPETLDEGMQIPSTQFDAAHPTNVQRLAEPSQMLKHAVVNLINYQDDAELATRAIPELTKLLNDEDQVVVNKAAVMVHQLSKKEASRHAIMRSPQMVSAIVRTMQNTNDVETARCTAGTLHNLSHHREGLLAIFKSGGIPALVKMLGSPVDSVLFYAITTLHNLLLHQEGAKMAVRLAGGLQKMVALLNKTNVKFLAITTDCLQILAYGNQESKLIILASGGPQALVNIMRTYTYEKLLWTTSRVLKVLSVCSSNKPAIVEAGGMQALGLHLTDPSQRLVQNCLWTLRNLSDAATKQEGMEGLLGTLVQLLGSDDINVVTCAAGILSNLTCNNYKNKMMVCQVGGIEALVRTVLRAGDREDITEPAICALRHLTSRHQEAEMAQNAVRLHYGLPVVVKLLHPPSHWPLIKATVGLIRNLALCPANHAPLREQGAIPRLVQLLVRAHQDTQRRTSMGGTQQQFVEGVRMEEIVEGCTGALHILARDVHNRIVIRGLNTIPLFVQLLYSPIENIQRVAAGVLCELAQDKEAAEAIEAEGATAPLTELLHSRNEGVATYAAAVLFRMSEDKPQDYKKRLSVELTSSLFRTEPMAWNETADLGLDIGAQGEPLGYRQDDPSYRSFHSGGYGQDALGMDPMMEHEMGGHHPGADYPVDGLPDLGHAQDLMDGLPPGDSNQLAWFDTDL
UniProt P25054: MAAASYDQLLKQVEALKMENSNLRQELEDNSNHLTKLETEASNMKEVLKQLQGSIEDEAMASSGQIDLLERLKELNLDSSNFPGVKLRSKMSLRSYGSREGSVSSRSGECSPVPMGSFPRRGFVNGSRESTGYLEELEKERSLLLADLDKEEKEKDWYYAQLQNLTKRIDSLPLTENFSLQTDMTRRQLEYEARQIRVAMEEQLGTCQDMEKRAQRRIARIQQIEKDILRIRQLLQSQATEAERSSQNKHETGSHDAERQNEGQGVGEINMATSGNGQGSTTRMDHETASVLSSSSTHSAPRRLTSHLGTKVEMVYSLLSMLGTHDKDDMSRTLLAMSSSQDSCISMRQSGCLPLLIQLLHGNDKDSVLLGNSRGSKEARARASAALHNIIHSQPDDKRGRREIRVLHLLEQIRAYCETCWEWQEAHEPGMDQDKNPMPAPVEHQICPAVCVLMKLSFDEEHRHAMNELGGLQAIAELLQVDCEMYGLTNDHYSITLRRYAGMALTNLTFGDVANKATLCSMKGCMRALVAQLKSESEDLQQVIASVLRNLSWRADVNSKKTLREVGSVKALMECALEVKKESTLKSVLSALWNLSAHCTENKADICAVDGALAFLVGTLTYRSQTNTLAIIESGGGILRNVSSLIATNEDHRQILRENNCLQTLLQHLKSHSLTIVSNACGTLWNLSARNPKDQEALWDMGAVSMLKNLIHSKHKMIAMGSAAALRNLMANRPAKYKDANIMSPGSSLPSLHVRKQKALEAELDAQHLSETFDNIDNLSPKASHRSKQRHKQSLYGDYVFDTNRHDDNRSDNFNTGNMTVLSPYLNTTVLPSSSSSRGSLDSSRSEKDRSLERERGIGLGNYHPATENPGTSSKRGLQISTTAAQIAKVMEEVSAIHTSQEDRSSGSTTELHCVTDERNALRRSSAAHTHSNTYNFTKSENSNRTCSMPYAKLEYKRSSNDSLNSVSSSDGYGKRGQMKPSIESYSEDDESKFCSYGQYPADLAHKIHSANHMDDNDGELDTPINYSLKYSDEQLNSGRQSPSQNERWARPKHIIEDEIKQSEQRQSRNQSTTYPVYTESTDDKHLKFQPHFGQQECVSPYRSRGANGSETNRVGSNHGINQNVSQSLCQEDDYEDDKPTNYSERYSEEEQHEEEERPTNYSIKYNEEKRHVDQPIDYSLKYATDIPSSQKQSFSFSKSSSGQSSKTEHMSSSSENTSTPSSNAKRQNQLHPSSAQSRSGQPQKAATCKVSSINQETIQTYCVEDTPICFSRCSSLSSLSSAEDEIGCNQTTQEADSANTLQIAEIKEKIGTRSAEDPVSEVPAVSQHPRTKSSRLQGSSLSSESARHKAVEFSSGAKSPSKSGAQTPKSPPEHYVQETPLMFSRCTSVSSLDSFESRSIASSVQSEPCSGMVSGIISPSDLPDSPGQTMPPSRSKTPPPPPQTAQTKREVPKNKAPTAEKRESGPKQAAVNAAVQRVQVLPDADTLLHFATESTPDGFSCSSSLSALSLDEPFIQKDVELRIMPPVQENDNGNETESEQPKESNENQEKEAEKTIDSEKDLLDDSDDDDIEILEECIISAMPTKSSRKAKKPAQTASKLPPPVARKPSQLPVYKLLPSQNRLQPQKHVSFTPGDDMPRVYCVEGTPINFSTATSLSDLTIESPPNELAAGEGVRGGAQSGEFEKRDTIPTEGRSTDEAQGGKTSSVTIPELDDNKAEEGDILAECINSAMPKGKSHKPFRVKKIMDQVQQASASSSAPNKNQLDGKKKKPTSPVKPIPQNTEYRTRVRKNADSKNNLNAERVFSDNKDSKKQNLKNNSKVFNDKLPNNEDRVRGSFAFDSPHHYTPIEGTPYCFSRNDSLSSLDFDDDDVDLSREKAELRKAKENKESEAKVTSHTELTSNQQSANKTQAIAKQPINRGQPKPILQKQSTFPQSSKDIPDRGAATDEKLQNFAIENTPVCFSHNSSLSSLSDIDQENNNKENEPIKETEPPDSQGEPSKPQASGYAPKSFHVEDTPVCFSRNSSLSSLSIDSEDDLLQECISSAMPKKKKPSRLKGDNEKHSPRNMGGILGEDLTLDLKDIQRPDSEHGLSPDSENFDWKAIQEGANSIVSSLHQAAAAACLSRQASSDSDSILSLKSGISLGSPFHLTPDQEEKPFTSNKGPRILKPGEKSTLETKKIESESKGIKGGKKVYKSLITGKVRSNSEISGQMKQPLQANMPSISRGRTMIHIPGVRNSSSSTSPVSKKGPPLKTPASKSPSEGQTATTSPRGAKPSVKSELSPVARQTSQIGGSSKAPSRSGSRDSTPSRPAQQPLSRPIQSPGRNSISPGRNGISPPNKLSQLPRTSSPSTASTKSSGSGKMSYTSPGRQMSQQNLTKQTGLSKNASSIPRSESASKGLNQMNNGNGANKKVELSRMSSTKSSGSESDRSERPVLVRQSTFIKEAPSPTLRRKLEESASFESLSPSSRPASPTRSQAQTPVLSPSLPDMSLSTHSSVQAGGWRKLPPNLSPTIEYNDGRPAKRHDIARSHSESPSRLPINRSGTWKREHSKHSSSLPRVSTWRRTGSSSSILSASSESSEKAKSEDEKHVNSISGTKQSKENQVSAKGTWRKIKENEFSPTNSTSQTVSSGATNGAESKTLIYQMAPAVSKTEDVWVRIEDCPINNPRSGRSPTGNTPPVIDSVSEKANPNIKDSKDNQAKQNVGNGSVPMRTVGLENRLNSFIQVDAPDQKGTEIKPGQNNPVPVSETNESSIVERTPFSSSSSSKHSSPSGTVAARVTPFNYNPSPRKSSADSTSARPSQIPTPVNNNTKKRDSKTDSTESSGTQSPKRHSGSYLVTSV

What was measured:
[1] = molecular target: AXIN1-dStrepII (axis inhibition protein 1, wild type, C-terminal double-StrepII tag) (human) (UniProt O15169); assay: pull-down; as a1, but Sf9 cells co-expressing AXIN1-dStrepII, CK1α, GSK3β and β-catenin without APC
[2] = molecular target: AXIN1-dStrepII (axis inhibition protein 1, wild type, C-terminal double-StrepII tag) (human) (UniProt O15169); assay: pull-down; Strep-Tactin Sepharose purification via AXIN1-dStrepII (wild type or M3) from lysates of Sf9 cells co-expressing an APC variant, CK1α, GSK3β and β-catenin; 50 mM HEPES-NaOH pH 7.5, 150 mM NaCl, 4°C, 2 h; SDS-PAGE with Coomassie and immunoblot
[3] = molecular target: AXIN1-dStrepII (axis inhibition protein 1, wild type, C-terminal double-StrepII tag) (human) (UniProt O15169); assay: SEC-MALS; affinity-purified DC (wild-type or M3 AXIN1) at several dilutions; WTC-100N5 column; 50 mM HEPES-NaOH pH 7.5, 150 mM NaCl, 2 mM TCEP, 5% glycerol; fractions on SDS-PAGE; both purified
[4] = molecular target: AXIN1-dStrepII (axis inhibition protein 1, wild type, C-terminal double-StrepII tag) (human) (UniProt O15169); assay: mass photometry; SEC-MALS input and elution fractions of the affinity-purified DC, diluted to A280 of about 0.01 (<100 nM); 50 mM HEPES-NaOH pH 7.5, 150 mM NaCl; both purified

| Substance | binding [1] | binding [2] | binding [3] | binding [4] |
| --- | --- | --- | --- | --- |
| β-catenin, full length, co-expressed in the destruction complex (from UniProt P35222 1-781) | binds | binds | binds |  |
| AXIN1-dStrepII (axis inhibition protein 1, wild type, C-terminal double-StrepII tag) (from UniProt O15169-2 1-826) |  |  | binds | binds |
| APC S811* (truncation variant from COLO-320DM cells) (from UniProt P25054 1-810) (domain or fragment) |  | binds weakly |  |  |

Next, values leading:

| binding [1] | binding [2] | binding [3] | binding [4] | Substance |
| --- | --- | --- | --- | --- |
|  | binds |  |  | APC T1556* (truncation variant from COLO-205 cells) (from UniProt P25054 1-1555) (domain or fragment) |
|  | binds |  |  | APC Q1338* (truncation variant from SW480 cells) (from UniProt P25054 1-1337) (domain or fragment) |
